Here are results for four sequences from patent publication US20040097454.

By UniProt entry, the sequences of proteins in these tests, tags left out. Where a name states a change or a piece, a line headed by the entry shows the natural chain unless it says otherwise.
UniProt Q01147: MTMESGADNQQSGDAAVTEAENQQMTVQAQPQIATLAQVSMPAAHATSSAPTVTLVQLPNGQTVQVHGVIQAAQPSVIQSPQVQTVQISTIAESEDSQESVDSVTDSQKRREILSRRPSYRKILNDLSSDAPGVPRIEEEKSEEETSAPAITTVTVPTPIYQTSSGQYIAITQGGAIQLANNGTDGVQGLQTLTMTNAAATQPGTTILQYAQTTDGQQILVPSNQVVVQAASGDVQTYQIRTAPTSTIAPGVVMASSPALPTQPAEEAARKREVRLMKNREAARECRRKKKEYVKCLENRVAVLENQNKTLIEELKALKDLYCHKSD

Results from cells or extracts need not show a direct contact.

The target in this data set is CREB (endogenous, 3T3-L1 fibroblast nuclear extract) (Mus musculus) (UniProt Q01147). Put plainly: EMSA. The following applies: antibody supershift, 5 ug nuclear extract; protein in an extract; label: 32P.
Take “GGCCCCTTACGTCAGAGGCG (double strand) [PEPCK promoter CRE]”: the binding result is given as “binds”.

Take “CAGCCAAGCTGTCAGCCCAT (double strand) [FAS promoter putative CRE]”: the binding result is “binds”. On to “AAAACATGACTCAGAGGAA (double strand) [FABP (aP2/422) promoter putative CRE]”, for which the binding result was “binds”. Take “GCGGGCTGGCGTCACCCGCG (double strand) [CEBP beta promoter putative CRE]”: the binding result was “binds”.
